The record followed here is article PMC10313822, “Disruption of ER ion homeostasis maintained by an ER anion channel CLCC1 contributes to ALS-like pathologies” (Cell Research, 2023).

Positions count from the first letter of the chain named. These are yes or no findings as the source states them, for the method shown. For some assays here: Binding seen in cells or lysates may run through a third protein. Some results given as binding are weak or reduced against the parent protein; the word gives no strength. For some assays here: Sequences can lack the tags named with a protein.

In experiment [1] the target is differentially tagged CLCC1 co-expressed in the same cells (not stated (human or mouse cDNA cloned)) (UniProt Q99LI2). Put plainly: co-IP; differentially tagged CLCC1 co-expressed in the same cells; lysis in TBS with 1% DDM, antibody on Dynabeads, washes with 0.025% DDM.
In experiment [2] the target is purified full-length CLCC1 (native gel) (not stated (human or mouse cDNA cloned)) (UniProt Q99LI2). As to the kind of experiment: native gel or EMSA; native gel of purified full-length CLCC1; both purified.
The target in experiment [3] is T1, exogenously tagged CLCC1 (exogenous mCLCC1 of Fig. S2b) (mouse) (UniProt Q99LI2).
T1 sequence: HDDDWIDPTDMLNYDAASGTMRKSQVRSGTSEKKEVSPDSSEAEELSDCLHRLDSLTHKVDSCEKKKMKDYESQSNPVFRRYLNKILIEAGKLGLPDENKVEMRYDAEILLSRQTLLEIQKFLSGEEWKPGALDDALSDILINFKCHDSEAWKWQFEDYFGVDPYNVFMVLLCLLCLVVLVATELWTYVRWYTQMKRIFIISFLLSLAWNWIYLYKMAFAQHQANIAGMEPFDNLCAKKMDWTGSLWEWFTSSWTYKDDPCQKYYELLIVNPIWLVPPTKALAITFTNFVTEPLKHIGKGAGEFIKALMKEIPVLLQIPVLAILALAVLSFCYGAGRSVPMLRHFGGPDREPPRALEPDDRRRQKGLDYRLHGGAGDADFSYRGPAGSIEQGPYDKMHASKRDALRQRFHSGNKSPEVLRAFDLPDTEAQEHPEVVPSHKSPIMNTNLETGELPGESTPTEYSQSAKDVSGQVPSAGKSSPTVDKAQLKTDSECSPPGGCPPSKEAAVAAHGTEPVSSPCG
As to the kind of experiment: co-IP; exogenously tagged CLCC1 with endogenous CLCC1; lysis in TBS with 1% DDM, antibody on Dynabeads, washes with 0.025% DDM.

For experiment [4], the target named is T2, exogenous WT mouse CLCC1, doxycycline-induced in 293FT cells (mouse) (UniProt Q99LI2).
T2 sequence: T1 sequence
As to the kind of experiment: co-IP; 293FT cells stably carrying doxycycline-inducible mCLCC1 (WT or K298A), induced with Dox; exogenous mCLCC1 with endogenous hCLCC1.

The target in experiment [5] is T3, exogenous K298A mutant mouse CLCC1, doxycycline-induced in 293FT cells (mouse) (UniProt Q99LI2).
T3 sequence: T1 sequence with K280A
The description is as above.

B1: differentially tagged CLCC1 co-expressed in the same cells (protein, UniProt Q99LI2 19-539)
chain: T1 sequence
In the case of B1, the binding entry in experiment [1] is on record as “binds”.

B2: purified full-length CLCC1 (native gel) (protein, UniProt Q99LI2 19-539)
chain: T1 sequence
B2: in experiment [2], the binding result is reported as “binds”.

B3: endogenous human CLCC1 (Chloride Channel CLIC Like 1) (protein, UniProt Q96S66-1 19-551)
chain: HDDDWIDPTDMLNYDAASGTMRKSQAKYGISGEKDVSPDLSCADEISECYHKLDSLTYKIDECEKKKREDYESQSNPVFRRYLNKILIEAGKLGLPDENKGDMHYDAEIILKRETLLEIQKFLNGEDWKPGALDDALSDILINFKFHDFETWKWRFEDSFGVDPYNVLMVLLCLLCIVVLVATELWTYVRWYTQLRRVLIISFLFSLGWNWMYLYKLAFAQHQAEVAKMEPLNNVCAKKMDWTGSIWEWFRSSWTYKDDPCQKYYELLLVNPIWLVPPTKALAVTFTTFVTEPLKHIGKGTGEFIKALMKEIPALLHLPVLIIMALAILSFCYGAGKSVHVLRHIGGPESEPPQALRPRDRRRQEEIDYRPDGGAGDADFHYRGQMGPTEQGPYAKTYEGRREILRERDVDLRFQTGNKSPEVLRAFDVPDAEAREHPTVVPSHKSPVLDTKPKETGGILGEGTPKESSTESSQSAKPVSGQDTSGNTEGSPAAEKAQLKSEAAGSPDQGSTYSPARGVAGPRGQDPVSSPCG
Regarding B3, the binding result in experiment [3], in experiment [4] and in experiment [5] was “binds” each time.
